This is an account of results in the supplement of paper PMC4604168 (melanoma cell lines).

The other results are listed elsewhere or left out. Repeats are few or missing, and single values can be far off.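 Imaging used 1,536-well plates; nuclei positive for cleaved PARP by antibody were divided by total DNA-stained nuclei to yield the apoptosis fraction. Doses for screening kept most cells viable, and cell lines differ markedly in resting and induced cleaved-PARP levels.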

The subject of the assay is WM1716. The experiment in a line: cleaved PARP positive nuclei fraction relative to DMSO control; melanoma cells; higher = more apoptosis. To be noted: library dose: low library concentration; 72 h.
In the case of `COc1cc(Nc2ncc(F)c(Nc3ccc4c(n3)NC(=O)C(C)(C)O4)n2)cc(OC)c1OC` [Tamatinib] + O=C(Nc1ccccc1)c1cc([N+](=O)[O-])ccc1Cl [GW9662] (first compound 0.4 µM, partner dose 2 µM), the “cleaved PARP positive nuclei fraction” value worked out at 191%.

For the molecule `Cn1cncc1[C@@](N)(c1ccc(Cl)cc1)c1ccc2c(c1)c(-c1cccc(Cl)c1)cc(=O)n2C` [tipifarnib] + O=C(O)C(=O)Nc1sc2c(c1C(=O)O)CCNC2 [TCS401] (first compound 0.01 µM, partner dose 1.66667 µM), the “cleaved PARP positive nuclei fraction” value turned out to be 83.2%.

With `C=CCNC1=C2C[C@@H](C)C[C@H](OC)[C@H](O)[C@@H](C)/C=C(\C)[C@H](OC(N)=O)[C@@H](OC)/C=C\C=C(/C)C(=O)NC(=CC1=O)C2=O` [Tanespimycin] + COc1cc(Nc2ncc(F)c(Nc3ccc4c(n3)NC(=O)C(C)(C)O4)n2)cc(OC)c1OC [Tamatinib] (first compound 0.002 µM, partner dose 0.4 µM), the “cleaved PARP positive nuclei fraction” value is 124%.

With `Nc1cccc2c1CN(C1CCC(=O)NC1=O)C2=O` (configuration not stated) [lenalidomide] + O=C(O)c1ccc(-c2c[nH]c3ncc(-c4ccccc4)cc23)cc1C1CCCC1 [GSK650394] (first compound 1 µM, partner dose 0.16 µM), the “cleaved PARP positive nuclei fraction” value came out at 94.6%.

As for `Cn1cncc1[C@@](N)(c1ccc(Cl)cc1)c1ccc2c(c1)c(-c1cccc(Cl)c1)cc(=O)n2C` [tipifarnib] + CN(C)S(=O)(=O)c1ccc2c(c1)/C(=C/c1cc3c([nH]1)CCCC3)C(=O)N2 [SU6656] (first compound 0.01 µM, partner dose 0.4 µM), the “cleaved PARP positive nuclei fraction” value turned out to be 110%.

For the molecule `Cc1nc(Nc2ncc(C(=O)Nc3c(C)cccc3Cl)s2)cc(N2CCN(CCO)CC2)n1` [dasatanib] + C=CCn1c(=O)c2cnc(Nc3ccc(N4CCN(C)CC4)cc3)nc2n1-c1cccc(C(C)(C)O)n1 [MK1775] (first compound 0.004 µM, partner dose 0.02 µM), the “cleaved PARP positive nuclei fraction” value was 319%.

Turning to `O=C(CCCCCCC(=O)Nc1ccccc1)NO` [vorinostat] + COc1ccc(COc2ccc(Cc3cnc(N)nc3N)cc2OC)cc1 [GW2580] (first compound 0.08 µM, partner dose 1 µM), the “cleaved PARP positive nuclei fraction” value is 71.8%.

As for `C[C@@H]1CCN(C(=O)CC#N)C[C@@H]1N(C)c1ncnc2[nH]ccc12` + CCc1ccc(CCOc2ccc(CC3SC(=O)NC3=O)cc2)nc1 [pioglitazone] (first compound 1 µM, partner dose 2 µM), the “cleaved PARP positive nuclei fraction” value was determined as 88.3%.

For the molecule `C#Cc1cccc(Nc2ncnc3cc(OCCOC)c(OCCOC)cc23)c1` [erlotinib] + CC(C)(C)c1cnc(CSc2cnc(NC(=O)C3CCNCC3)s2)o1 [SNS-032] (first compound 0.8 µM, partner dose 0.01 µM), the “cleaved PARP positive nuclei fraction” value turned out to be 99%.

For the molecule `Cn1cncc1[C@@](N)(c1ccc(Cl)cc1)c1ccc2c(c1)c(-c1cccc(Cl)c1)cc(=O)n2C` [tipifarnib] + N#Cc1c(O)c2c(-c3ccc(-c4ccccc4O)cc3)csc2[nH]c1=O [A769662] (first compound 0.01 µM, partner dose 2 µM), the “cleaved PARP positive nuclei fraction” value was 188%.

Regarding `Cn1cncc1[C@@](N)(c1ccc(Cl)cc1)c1ccc2c(c1)c(-c1cccc(Cl)c1)cc(=O)n2C` [tipifarnib] + COc1cc(N2CCC(N3CCN(C)CC3)CC2)ccc1Nc1ncc(Cl)c(Nc2ccccc2S(=O)(=O)C(C)C)n1 [NVP-TAE684] (first compound 0.01 µM, partner dose 0.08 µM), the “cleaved PARP positive nuclei fraction” value was 171%.

Take `COCC[n+]1c2c(n(Cc3cnccn3)c1C)C(=O)c1ccccc1C2=O` + NC(=O)Nc1cc(-c2cccc(F)c2)sc1C(=O)N[C@H]1CCCNC1 [AZD7762] (first compound 0.0004 µM, partner dose 0.02 µM): the “cleaved PARP positive nuclei fraction” value was found to be 107%.

`Nc1cccc2c1CN(C1CCC(=O)NC1=O)C2=O` (configuration not stated) [lenalidomide] + OCCn1cc(-c2cnc3nnn(Cc4ccc5ncccc5c4)c3n2)cn1 [PF04217903] (first compound 1 µM, partner dose 1 µM): the “cleaved PARP positive nuclei fraction” value amounted to 16.1%.

Take `Cn1nnc2c(C(N)=O)ncn2c1=O` [temozolomide] + Cc1ccc(NC(=O)c2cccc(N(C)C)c2)cc1NC(=O)c1ccc(O)cc1 [ZM336372] (first compound 2 µM, partner dose 2 µM): the “cleaved PARP positive nuclei fraction” value was determined as 156%.

Take `Cn1nnc2c(C(N)=O)ncn2c1=O` [temozolomide] + Cn1cc(/C=C2\C(=O)Nc3cccnc32)c2ccccc21 [GW441756] (first compound 2 µM, partner dose 0.4 µM): the “cleaved PARP positive nuclei fraction” value amounted to 56.4%.

For the molecule `Cc1cc(N2CCOCC2)cc2[nH]c(-c3c(NC[C@@H](O)c4cccc(Cl)c4)cc[nH]c3=O)nc12` + O=C(Nc1ccccc1)c1cc([N+](=O)[O-])ccc1Cl [GW9662] (first compound 0.2 µM, partner dose 2 µM), the “cleaved PARP positive nuclei fraction” value was 89.6%.

For `C[C@]1(c2nc3c(C(N)=O)cccc3[nH]2)CCCN1` [Veliparib] + Oc1cc(-c2nc(-c3ccccc3)[nH]c2-c2ccncc2)ccc1Cl [L779450] (first compound 1.4 µM, partner dose 0.2 µM), the “cleaved PARP positive nuclei fraction” value worked out at 110%.

For `C#Cc1cccc(Nc2ncnc3cc(OCCOC)c(OCCOC)cc23)c1` [erlotinib] + Cc1cc([N+](=O)[O-])ccc1NS(=O)(=O)c1cc(Cl)ccc1Cl [FH535] (first compound 0.8 µM, partner dose 1 µM), the “cleaved PARP positive nuclei fraction” value turned out to be 98.8%.

On to `C[C@]1(c2nc3c(C(N)=O)cccc3[nH]2)CCCN1` [Veliparib] + C=CCn1c(=O)c2cnc(Nc3ccc(N4CCN(C)CC4)cc3)nc2n1-c1cccc(C(C)(C)O)n1 [MK1775] (first compound 1.4 µM, partner dose 0.02 µM), for which the “cleaved PARP positive nuclei fraction” value came out at 187%.

On to `Cn1c(Nc2ccc(C(F)(F)F)cc2)nc2cc(Oc3ccnc(-c4ncc(C(F)(F)F)[nH]4)c3)ccc21` + O=C(Nc1cccc(Cl)c1)Nc1ncc(CCNc2ncnc3ccsc23)s1 [SNS314] (first compound 0.08 µM, partner dose 0.0008 µM), for which the “cleaved PARP positive nuclei fraction” value is 200%.

Take `C#Cc1cccc(Nc2ncnc3cc(OCCOC)c(OCCOC)cc23)c1` [erlotinib] + O=C(Nc1ccccc1)c1cc([N+](=O)[O-])ccc1Cl [GW9662] (first compound 0.8 µM, partner dose 2 µM): the “cleaved PARP positive nuclei fraction” value turned out to be 126%.

In the case of `NC(=O)Nc1cc(-c2cccc(F)c2)sc1C(=O)N[C@H]1CCCNC1` + C[C@@H]1CCN(C(=O)CC#N)C[C@@H]1N(C)c1ncnc2[nH]ccc12 [CP690550] (first compound 0.02 µM, partner dose 1 µM), the “cleaved PARP positive nuclei fraction” value is 106%.

As for `COCC[n+]1c2c(n(Cc3cnccn3)c1C)C(=O)c1ccccc1C2=O` + OCCn1cc(-c2cnc3nnn(Cc4ccc5ncccc5c4)c3n2)cn1 [PF04217903] (first compound 0.0004 µM, partner dose 1 µM), the “cleaved PARP positive nuclei fraction” value turned out to be 144%.

Consider `C=CCn1c(=O)c2cnc(Nc3ccc(N4CCN(C)CC4)cc3)nc2n1-c1cccc(C(C)(C)O)n1` + COc1ccc(-c2ccc3c(N4CCOCC4)nc(N4C[C@@H](C)O[C@@H](C)C4)nc3n2)cc1CO [KU0063794] (first compound 0.02 µM, partner dose 0.02 µM), for which the “cleaved PARP positive nuclei fraction” value was found to be 102%.

As for `Cc1cc(N2CCOCC2)cc2[nH]c(-c3c(NC[C@@H](O)c4cccc(Cl)c4)cc[nH]c3=O)nc12` + CCCCCCCCCCCC1=C(O)C(=O)C=C(O)C1=O [Embelin] (first compound 0.2 µM, partner dose 1.2 µM), the “cleaved PARP positive nuclei fraction” value was 75.5%.

Take `C=CCNC1=C2C[C@@H](C)C[C@H](OC)[C@H](O)[C@@H](C)/C=C(\C)[C@H](OC(N)=O)[C@@H](OC)/C=C\C=C(/C)C(=O)NC(=CC1=O)C2=O` [Tanespimycin] + CN(NC(=O)CC(=O)NN(C)C(=S)c1ccccc1)C(=S)c1ccccc1 [STA4783] (first compound 0.002 µM, partner dose 0.006 µM): the “cleaved PARP positive nuclei fraction” value stood at 285%.

As for `COCC[n+]1c2c(n(Cc3cnccn3)c1C)C(=O)c1ccccc1C2=O` + N#Cc1c(O)c2c(-c3ccc(-c4ccccc4O)cc3)csc2[nH]c1=O [A769662] (first compound 0.0004 µM, partner dose 2 µM), the “cleaved PARP positive nuclei fraction” value turned out to be 104%.

Take `C[C@@H]1CCN(C(=O)CC#N)C[C@@H]1N(C)c1ncnc2[nH]ccc12` + COc1ccc(COc2ccc(Cc3cnc(N)nc3N)cc2OC)cc1 [GW2580] (first compound 1 µM, partner dose 1 µM): the “cleaved PARP positive nuclei fraction” value worked out at 92.2%.

On to `Cn1c(Nc2ccc(C(F)(F)F)cc2)nc2cc(Oc3ccnc(-c4ncc(C(F)(F)F)[nH]4)c3)ccc21` + CCCCCCCCCCCC1=C(O)C(=O)C=C(O)C1=O [Embelin] (first compound 0.08 µM, partner dose 1.2 µM), for which the “cleaved PARP positive nuclei fraction” value turned out to be 136%.

For `C=CCn1c(=O)c2cnc(Nc3ccc(N4CCN(C)CC4)cc3)nc2n1-c1cccc(C(C)(C)O)n1` + CC(C)(C)c1cnc(CSc2cnc(NC(=O)C3CCNCC3)s2)o1 [SNS-032] (first compound 0.02 µM, partner dose 0.01 µM), the “cleaved PARP positive nuclei fraction” value is 117%.

Take `Cc1nc(Nc2ncc(C(=O)Nc3c(C)cccc3Cl)s2)cc(N2CCN(CCO)CC2)n1` [dasatanib] + CC(C)CCN1c2nc(Nc3cc(F)c(O)c(F)c3)ncc2N(C)C(=O)C1C [BID1870] (first compound 0.004 µM, partner dose 0.2 µM): the “cleaved PARP positive nuclei fraction” value worked out at 154%.

For `CC1(C)NC(=O)N(c2ccc([N+](=O)[O-])c(C(F)(F)F)c2)C1=O` [nilutamide] + CN(C)S(=O)(=O)c1ccc2c(c1)/C(=C/c1cc3c([nH]1)CCCC3)C(=O)N2 [SU6656] (first compound 1 µM, partner dose 0.4 µM), the “cleaved PARP positive nuclei fraction” value is 12.5%.
